Results are given in words; binding and its absence hold for the method and conditions named. Some results given as binding are weak or reduced against the parent protein; the word gives no strength.
What was measured:
Assay in all cases: two-hybrid
[1] = molecular target: PulG (Klebsiella oxytoca) (UniProt P15746)
[2] = molecular target: PulL (Klebsiella oxytoca) (UniProt P15751)
[3] = molecular target: PulM (Klebsiella oxytoca) (UniProt P15752)
[4] = molecular target: PulM^ΔCC (Klebsiella oxytoca) (UniProt P15752)

| Substance | binding [1] | binding [2] | binding [3] | binding [4] |
| --- | --- | --- | --- | --- |
| PulM (from UniProt P15752 1-161) | binds | binds | – | – |
| PulM^ΔCC (from UniProt P15752 1-161) | binds | – | – | – |
| PulL^ΔCC (from UniProt P15751 1-398) | no binding | – | – | – |
| PulL (from UniProt P15751 1-398) | no binding | – | binds | – |
| PulG (from UniProt P15746 1-140) | – | – | binds | binds |
| PulMΔN (from UniProt P15752 1-161) | – | binds | – | – |
